The supplement of paper PMC12595434, “Development of retinoid nuclear receptor pathway antagonists through targeting aldehyde dehydrogenase 1A3” (iScience, 2025)
Some of the results follow. The data scatter; read single values as rough.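 Tm was set to 64 °C where no melting was found, and many curves are irregular.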

Amino acid sequences for entries named in this document (tags omitted). A change or cut given only in a name is not applied to a line headed by its entry.
UniProt Q5XKP0: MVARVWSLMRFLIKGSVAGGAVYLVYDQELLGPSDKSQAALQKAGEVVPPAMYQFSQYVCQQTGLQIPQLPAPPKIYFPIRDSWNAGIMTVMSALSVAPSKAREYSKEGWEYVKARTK
UniProt Q5TCQ9: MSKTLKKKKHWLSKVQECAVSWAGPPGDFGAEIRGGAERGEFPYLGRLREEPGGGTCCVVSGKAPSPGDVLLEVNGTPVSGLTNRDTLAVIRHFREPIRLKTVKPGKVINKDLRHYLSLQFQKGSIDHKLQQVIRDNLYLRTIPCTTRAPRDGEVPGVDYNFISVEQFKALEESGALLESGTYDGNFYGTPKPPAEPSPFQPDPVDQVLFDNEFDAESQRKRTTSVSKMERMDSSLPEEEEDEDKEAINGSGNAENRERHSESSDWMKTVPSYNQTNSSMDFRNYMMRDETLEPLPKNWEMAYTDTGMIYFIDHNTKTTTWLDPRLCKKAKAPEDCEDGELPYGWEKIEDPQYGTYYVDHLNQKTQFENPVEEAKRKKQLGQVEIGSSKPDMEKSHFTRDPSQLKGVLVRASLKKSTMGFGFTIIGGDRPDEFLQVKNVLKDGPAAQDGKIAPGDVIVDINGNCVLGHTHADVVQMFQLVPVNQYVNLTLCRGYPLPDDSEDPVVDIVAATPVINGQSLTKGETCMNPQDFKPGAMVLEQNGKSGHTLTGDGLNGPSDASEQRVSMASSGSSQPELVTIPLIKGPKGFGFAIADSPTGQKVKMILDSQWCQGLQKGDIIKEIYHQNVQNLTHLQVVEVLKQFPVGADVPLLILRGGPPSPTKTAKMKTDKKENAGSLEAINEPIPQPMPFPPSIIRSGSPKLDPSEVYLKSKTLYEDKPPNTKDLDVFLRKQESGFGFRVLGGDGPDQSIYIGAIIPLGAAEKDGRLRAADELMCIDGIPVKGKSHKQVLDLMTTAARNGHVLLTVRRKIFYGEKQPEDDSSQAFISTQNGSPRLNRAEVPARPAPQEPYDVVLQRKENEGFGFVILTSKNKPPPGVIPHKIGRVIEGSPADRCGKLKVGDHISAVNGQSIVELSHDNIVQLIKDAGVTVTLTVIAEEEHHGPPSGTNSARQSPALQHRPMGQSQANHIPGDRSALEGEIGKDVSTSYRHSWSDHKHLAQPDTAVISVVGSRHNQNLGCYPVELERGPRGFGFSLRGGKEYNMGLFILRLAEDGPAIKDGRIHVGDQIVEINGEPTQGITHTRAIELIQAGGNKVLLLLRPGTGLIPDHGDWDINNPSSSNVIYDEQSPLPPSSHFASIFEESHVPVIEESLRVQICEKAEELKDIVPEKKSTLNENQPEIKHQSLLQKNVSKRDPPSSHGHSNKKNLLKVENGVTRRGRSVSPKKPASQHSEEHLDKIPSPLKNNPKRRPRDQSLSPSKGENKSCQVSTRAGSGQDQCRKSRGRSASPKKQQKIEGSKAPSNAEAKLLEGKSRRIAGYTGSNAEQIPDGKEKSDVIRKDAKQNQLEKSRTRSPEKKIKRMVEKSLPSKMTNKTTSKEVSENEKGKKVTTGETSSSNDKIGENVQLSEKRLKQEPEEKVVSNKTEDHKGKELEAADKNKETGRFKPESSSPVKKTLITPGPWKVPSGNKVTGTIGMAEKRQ
UniProt Q5T013: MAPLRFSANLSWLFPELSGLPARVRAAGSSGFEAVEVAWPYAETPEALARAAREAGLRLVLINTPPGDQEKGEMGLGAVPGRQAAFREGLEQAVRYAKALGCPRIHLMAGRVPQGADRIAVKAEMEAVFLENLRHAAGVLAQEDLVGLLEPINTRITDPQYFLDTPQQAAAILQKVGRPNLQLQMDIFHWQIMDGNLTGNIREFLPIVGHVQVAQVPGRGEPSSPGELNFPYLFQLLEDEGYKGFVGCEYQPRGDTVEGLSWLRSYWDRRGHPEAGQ
UniProt Q5JWF2, whole entry: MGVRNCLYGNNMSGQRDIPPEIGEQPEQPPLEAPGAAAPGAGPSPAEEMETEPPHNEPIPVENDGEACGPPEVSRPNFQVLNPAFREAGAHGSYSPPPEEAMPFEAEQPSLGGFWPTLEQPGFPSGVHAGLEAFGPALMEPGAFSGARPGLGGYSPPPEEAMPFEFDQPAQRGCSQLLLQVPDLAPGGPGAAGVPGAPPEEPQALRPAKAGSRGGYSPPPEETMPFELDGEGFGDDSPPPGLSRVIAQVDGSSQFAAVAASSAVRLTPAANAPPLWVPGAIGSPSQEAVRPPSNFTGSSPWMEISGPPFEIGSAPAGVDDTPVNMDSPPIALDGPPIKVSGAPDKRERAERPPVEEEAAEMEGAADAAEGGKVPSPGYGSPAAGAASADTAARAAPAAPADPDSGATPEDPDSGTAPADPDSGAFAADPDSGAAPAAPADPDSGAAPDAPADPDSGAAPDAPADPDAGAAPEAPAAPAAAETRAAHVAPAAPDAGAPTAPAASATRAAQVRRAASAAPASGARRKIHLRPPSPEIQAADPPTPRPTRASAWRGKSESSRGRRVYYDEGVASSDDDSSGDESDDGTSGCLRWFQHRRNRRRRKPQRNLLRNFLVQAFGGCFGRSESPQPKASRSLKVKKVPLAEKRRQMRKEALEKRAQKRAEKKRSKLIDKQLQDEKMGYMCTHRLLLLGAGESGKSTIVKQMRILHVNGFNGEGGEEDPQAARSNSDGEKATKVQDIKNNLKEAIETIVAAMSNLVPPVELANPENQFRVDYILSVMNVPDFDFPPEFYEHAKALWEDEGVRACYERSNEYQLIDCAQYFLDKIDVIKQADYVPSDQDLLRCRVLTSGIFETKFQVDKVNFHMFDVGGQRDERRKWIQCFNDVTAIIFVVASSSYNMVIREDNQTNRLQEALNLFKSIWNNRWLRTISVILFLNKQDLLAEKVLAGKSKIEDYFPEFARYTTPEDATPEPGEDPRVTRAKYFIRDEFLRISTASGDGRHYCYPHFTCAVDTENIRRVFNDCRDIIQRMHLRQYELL
UniProt Q6P2C8: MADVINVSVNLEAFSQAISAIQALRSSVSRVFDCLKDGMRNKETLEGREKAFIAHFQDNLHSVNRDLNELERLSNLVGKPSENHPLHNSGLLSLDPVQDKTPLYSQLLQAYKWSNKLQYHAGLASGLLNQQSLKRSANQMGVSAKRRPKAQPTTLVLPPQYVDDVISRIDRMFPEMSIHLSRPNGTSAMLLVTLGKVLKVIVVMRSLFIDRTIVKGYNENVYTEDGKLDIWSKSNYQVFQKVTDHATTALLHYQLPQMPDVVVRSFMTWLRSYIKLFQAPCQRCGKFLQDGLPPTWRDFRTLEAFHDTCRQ
UniProt Q6P1X5, whole entry: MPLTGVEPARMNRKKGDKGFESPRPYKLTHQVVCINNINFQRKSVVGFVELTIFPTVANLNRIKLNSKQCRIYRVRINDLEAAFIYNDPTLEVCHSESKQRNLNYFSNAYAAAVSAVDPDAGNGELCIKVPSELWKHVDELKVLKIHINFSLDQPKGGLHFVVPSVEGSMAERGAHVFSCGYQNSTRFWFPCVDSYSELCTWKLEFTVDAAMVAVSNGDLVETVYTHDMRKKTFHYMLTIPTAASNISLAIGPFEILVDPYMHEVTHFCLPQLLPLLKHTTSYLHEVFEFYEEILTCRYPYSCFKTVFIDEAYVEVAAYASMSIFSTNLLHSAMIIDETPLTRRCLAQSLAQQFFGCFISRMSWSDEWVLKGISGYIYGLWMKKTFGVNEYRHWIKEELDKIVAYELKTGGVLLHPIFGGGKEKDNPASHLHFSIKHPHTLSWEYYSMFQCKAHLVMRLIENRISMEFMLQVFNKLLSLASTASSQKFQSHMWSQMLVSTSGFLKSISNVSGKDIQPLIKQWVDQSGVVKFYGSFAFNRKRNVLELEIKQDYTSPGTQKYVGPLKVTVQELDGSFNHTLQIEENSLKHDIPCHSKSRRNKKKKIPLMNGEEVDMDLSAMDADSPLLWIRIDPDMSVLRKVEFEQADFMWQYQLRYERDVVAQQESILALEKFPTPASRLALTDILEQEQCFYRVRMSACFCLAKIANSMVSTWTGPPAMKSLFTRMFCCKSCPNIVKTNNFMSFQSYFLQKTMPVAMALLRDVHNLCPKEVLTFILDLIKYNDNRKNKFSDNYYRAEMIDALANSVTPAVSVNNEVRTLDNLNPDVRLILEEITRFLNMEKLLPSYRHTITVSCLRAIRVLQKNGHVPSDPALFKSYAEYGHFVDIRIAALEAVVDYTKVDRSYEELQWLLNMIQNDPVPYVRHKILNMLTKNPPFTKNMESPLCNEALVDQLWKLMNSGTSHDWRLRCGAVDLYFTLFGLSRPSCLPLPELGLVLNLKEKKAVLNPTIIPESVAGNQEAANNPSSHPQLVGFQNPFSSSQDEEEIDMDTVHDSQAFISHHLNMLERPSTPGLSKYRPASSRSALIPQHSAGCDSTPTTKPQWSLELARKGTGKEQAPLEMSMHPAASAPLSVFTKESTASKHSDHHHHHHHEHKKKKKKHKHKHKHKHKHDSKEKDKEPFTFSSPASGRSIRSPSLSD
UniProt Q58FF8, whole entry: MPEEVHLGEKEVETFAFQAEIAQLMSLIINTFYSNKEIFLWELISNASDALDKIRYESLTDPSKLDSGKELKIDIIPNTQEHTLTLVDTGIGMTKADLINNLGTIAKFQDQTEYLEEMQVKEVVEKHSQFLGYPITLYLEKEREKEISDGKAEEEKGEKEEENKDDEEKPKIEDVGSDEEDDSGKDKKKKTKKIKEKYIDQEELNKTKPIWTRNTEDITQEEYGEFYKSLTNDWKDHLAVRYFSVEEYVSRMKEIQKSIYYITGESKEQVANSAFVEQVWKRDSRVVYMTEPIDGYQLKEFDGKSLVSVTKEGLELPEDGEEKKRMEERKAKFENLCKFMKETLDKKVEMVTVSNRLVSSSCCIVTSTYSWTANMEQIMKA
UniProt Q6P2P2: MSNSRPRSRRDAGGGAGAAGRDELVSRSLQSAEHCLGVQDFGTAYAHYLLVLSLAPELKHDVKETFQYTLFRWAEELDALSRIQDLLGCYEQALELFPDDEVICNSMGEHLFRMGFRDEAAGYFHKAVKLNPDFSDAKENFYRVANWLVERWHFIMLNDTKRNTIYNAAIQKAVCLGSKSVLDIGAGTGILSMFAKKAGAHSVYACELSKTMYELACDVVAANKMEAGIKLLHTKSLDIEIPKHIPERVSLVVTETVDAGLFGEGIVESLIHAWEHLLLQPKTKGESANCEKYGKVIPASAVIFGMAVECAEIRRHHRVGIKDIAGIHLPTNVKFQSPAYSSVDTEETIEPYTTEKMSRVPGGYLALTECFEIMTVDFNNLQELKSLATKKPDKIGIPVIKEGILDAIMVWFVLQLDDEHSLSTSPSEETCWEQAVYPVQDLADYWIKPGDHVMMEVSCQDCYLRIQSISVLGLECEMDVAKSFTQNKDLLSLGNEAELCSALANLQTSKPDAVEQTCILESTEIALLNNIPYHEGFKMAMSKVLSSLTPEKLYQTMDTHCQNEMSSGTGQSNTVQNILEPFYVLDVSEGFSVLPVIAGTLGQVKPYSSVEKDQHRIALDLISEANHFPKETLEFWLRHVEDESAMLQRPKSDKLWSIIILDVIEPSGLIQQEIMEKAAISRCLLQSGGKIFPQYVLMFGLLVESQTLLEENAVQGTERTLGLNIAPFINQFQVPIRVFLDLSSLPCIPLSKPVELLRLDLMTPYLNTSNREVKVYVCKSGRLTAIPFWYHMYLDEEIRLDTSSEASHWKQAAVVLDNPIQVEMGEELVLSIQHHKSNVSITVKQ
UniProt Q6IN84: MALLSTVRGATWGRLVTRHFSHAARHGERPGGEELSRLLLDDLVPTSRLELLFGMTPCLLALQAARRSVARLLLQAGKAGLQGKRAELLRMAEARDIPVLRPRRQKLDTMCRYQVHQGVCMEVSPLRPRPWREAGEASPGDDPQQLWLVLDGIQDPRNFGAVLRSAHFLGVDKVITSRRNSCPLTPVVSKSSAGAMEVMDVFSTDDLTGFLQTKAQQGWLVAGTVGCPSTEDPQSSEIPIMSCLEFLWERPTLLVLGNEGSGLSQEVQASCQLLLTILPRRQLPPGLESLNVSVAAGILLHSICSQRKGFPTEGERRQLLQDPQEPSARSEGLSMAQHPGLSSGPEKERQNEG

Compound: CCc1cnccc1C(=O)Nc1cc2c(cc1F)NC(=O)CC2
Assay: melting temperature shift (DMSO Tm minus MBE1-treated Tm) in cellular thermal proteome profiling; higher = less thermal stabilization by MBE1 (negative = stabilized by MBE1)
Settings: A375

Target	melting temperature shift (MBE1 concentration: 100 nM)	melting temperature shift (MBE1 concentration: 1 uM)
UniProt Q68DK7	0.167 °C	0.81 °C
ABHD17B (UniProt Q5VST6)	-1.79 °C	-2.35 °C
LRRC8E (UniProt Q6NSJ5)	-1.13 °C	1.2 °C
PDSS1 (UniProt Q5T2R2)	0.423 °C	1 °C
UHRF1BP1 (UniProt Q6BDS2)	-0.543 °C	0.147 °C
STXBP5 (UniProt Q5T5C0)	-15.1 °C	–
UniProt Q5XKP0	-0.336 °C	2.32 °C
UniProt Q68D85	-3.02 °C	-2.69 °C
NHSL1 (UniProt Q5SYE7)	-0.476 °C	0.235 °C
VPS13D (UniProt Q5THJ4)	0.26 °C	0.443 °C
LRRC16A (UniProt Q5VZK9)	–	-0.165 °C
PTRF (UniProt Q6NZI2)	-1.54 °C	0.719 °C
CD276 (UniProt Q5ZPR3)	–	0.644 °C
REEP3 (UniProt Q6NUK4)	–	20.9 °C
CWF19L1 (UniProt Q69YN2)	0.605 °C	-0.324 °C
MFSD5 (UniProt Q6N075)	-1.48 °C	–
UniProt Q5TCQ9	1.99 °C	0.958 °C
GORAB (UniProt Q5T7V8)	-0.214 °C	-1.37 °C
BROX (UniProt Q5VW32)	-0.0141 °C	-0.47 °C
HYI (UniProt Q5T013)	–	-4.11 °C
DENND4C (UniProt Q5VZ89)	0.885 °C	0.0794 °C

Target	melting temperature shift (MBE1 concentration: 100 nM)	melting temperature shift (MBE1 concentration: 1 uM)
YOD1 (UniProt Q5VVQ6)	0.546 °C	0.495 °C
EXOSC6 (UniProt Q5RKV6)	-3.77 °C	0.472 °C
TWF2 (UniProt Q6IBS0)	-0.845 °C	0.798 °C
DDI2 (UniProt Q5TDH0)	-0.832 °C	0.0855 °C
TAPT1 (UniProt Q6NXT6)	-2.27 °C	-2.34 °C
DCAF12 (UniProt Q5T6F0)	–	-0.39 °C
UniProt Q5TBA9	–	-0.0939 °C
ODR4 (UniProt Q5SWX8)	0.281 °C	-0.0488 °C
UniProt Q5JWF2	-1.37 °C	-1.19 °C
TTC19 (UniProt Q6DKK2)	-1.04 °C	-0.382 °C
TOR1AIP1 (UniProt Q5JTV8)	-1.41 °C	-0.604 °C
MBLAC2 (UniProt Q68D91)	-0.455 °C	0.439 °C
MED27 (UniProt Q6P2C8)	-1.86 °C	-2.21 °C
TAF2 (UniProt Q6P1X5)	-0.495 °C	-0.732 °C
DDX59 (UniProt Q5T1V6)	1.71 °C	0.562 °C
UniProt Q5TAQ9	0.488 °C	-0.397 °C
HEATR6 (UniProt Q6AI08)	0.983 °C	0.818 °C
UniProt Q58FF8	-0.0672 °C	0.299 °C
RSBN1 (UniProt Q5VWQ0)	-1.91 °C	0.641 °C
RIF1 (UniProt Q5UIP0)	-0.301 °C	-0.282 °C
UniProt Q5T6S3	-0.579 °C	-0.826 °C

Exported bar-delimited: entries from further up.
Target | melting temperature shift (MBE1 concentration: 100 nM) | melting temperature shift (MBE1 concentration: 1 uM)
TWF2 (UniProt Q6IBS0) | -0.845 °C | 0.798 °C
DDI2 (UniProt Q5TDH0) | -0.832 °C | 0.0855 °C
DCAF12 (UniProt Q5T6F0) | – | -0.39 °C
ODR4 (UniProt Q5SWX8) | 0.281 °C | -0.0488 °C
UniProt Q5JWF2 | -1.37 °C | -1.19 °C
TTC19 (UniProt Q6DKK2) | -1.04 °C | -0.382 °C
MBLAC2 (UniProt Q68D91) | -0.455 °C | 0.439 °C
UniProt Q58FF8 | -0.0672 °C | 0.299 °C
RSBN1 (UniProt Q5VWQ0) | -1.91 °C | 0.641 °C
RIF1 (UniProt Q5UIP0) | -0.301 °C | -0.282 °C
UniProt Q5T6S3 | -0.579 °C | -0.826 °C

Continuation:

Target	melting temperature shift (MBE1 concentration: 100 nM)	melting temperature shift (MBE1 concentration: 1 uM)
RRP12 (UniProt Q5JTH9)	-0.0577 °C	-0.173 °C
THEM4 (UniProt Q5T1C6)	-0.796 °C	-0.0366 °C
PDE12 (UniProt Q6L8Q7)	-0.562 °C	0.415 °C
UniProt Q6P4R8	0.128 °C	0.41 °C
RNF220 (UniProt Q5VTB9)	-0.14 °C	-0.318 °C
HP1BP3 (UniProt Q5SSJ5)	0.867 °C	0.0183 °C
LAMTOR1 (UniProt Q6IAA8)	-2.12 °C	0.91 °C
TATDN1 (UniProt Q6P1N9)	-1.06 °C	-1.91 °C
LIN54 (UniProt Q6MZP7)	0.577 °C	-0.769 °C
CRYBG3 (UniProt Q68DQ2)	-0.616 °C	-0.701 °C
SH3PXD2A (UniProt Q5TCZ1)	-2.01 °C	2.93 °C
MRPL14 (UniProt Q6P1L8)	0.806 °C	1.03 °C
UniProt Q5T3J3	-2.31 °C	0.669 °C
UniProt Q5TGY3	-0.545 °C	-0.66 °C
PRMT9 (UniProt Q6P2P2)	0.769 °C	0.208 °C
ATPAF1 (UniProt Q5TC12)	1.78 °C	1.2 °C
C9ORF64 (UniProt Q5T6V5)	0.305 °C	-0.513 °C
MRM1 (UniProt Q6IN84)	-0.997 °C	0.0201 °C
NUP188 (UniProt Q5SRE5)	0.721 °C	0.287 °C
YIF1B (UniProt Q5BJH7)	-1.17 °C	-1.5 °C
